## Primary screen of a compound library

Chains of the proteins cited; added tags and fusions are not shown.
UniProt I6X8D2, whole entry: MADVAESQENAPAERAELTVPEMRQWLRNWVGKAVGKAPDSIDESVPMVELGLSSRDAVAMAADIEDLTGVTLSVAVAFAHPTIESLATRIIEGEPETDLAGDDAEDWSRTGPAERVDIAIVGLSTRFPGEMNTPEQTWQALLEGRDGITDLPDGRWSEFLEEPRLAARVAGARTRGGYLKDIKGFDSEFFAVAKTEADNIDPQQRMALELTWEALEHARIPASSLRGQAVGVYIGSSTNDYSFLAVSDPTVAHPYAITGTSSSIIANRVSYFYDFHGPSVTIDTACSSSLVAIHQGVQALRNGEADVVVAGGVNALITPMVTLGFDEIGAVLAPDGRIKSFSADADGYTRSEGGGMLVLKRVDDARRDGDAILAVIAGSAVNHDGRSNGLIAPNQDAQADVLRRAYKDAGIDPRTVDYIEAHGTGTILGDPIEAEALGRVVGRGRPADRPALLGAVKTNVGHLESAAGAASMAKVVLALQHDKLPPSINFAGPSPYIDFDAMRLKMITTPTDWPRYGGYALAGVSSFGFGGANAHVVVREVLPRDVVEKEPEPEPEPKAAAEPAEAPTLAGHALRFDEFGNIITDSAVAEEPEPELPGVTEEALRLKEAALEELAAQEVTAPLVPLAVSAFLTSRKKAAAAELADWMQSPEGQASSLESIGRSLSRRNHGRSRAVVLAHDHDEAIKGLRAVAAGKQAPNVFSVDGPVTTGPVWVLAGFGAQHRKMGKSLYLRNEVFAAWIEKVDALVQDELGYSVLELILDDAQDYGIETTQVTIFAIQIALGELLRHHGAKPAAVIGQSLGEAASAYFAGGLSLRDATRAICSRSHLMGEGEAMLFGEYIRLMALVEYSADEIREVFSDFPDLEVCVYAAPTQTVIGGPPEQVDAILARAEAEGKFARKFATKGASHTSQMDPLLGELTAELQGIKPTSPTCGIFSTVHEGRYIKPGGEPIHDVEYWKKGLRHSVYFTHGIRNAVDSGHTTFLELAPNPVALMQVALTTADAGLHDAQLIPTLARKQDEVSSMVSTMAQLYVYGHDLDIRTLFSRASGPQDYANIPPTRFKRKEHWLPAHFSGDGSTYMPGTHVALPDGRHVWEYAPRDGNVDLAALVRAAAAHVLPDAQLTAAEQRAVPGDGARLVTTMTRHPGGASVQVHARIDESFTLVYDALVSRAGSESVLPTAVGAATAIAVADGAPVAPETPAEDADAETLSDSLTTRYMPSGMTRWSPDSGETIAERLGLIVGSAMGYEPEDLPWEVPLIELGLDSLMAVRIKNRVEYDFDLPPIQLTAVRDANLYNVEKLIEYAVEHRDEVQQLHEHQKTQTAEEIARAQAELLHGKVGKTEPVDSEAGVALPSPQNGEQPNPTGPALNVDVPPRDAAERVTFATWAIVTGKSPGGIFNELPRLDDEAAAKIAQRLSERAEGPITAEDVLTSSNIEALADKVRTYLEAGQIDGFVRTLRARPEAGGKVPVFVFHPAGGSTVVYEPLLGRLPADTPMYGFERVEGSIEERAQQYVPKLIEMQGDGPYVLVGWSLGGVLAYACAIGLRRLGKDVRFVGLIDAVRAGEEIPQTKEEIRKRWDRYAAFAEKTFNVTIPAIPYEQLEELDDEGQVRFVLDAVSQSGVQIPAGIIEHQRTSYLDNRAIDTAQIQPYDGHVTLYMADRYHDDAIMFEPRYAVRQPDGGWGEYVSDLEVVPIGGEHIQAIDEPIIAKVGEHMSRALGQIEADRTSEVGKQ
UniProt P9WNZ1, whole entry: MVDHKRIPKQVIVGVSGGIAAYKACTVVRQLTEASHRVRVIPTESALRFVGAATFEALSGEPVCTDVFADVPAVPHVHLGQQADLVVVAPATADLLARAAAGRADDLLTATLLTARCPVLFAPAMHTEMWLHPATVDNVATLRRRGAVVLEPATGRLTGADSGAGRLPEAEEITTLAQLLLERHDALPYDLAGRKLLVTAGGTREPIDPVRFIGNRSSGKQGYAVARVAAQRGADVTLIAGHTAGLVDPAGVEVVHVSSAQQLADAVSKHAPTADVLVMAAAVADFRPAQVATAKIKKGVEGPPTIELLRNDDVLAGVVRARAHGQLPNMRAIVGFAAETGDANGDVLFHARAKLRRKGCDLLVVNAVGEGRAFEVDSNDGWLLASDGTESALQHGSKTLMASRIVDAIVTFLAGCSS
UniProt P9WFT3, whole entry: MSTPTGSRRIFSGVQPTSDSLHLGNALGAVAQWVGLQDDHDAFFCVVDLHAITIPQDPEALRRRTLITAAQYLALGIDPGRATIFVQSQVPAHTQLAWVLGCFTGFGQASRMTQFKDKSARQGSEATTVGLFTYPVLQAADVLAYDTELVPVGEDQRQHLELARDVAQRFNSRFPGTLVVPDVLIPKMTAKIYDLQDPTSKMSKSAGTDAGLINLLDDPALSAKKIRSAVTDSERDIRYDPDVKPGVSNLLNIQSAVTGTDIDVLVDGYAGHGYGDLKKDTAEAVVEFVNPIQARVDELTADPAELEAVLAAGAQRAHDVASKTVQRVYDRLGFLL

The values are deposited in ChEMBL (CHEMBL3988442, “University of Dundee, Small-Polar-MMV Screening Library” (2021)).

The filed quantity is “Percent Effect” (%).
How 0% and 100% were set is not recorded. Most values in the screen are low, and negative values occur.
Compounds were drawn at random from those tested, without regard to their results.
Two or more numbers in one place are separate tests of the same structure; such repeats can differ widely.

A: 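Polyketide synthase Pks13, Mycobacterium tuberculosis (UniProt I6X8D2). Enzyme assay of the thioesterase domain of polyketide synthase 13; the read-out is not stated. Tested at 30 µM. Higher reads as stronger inhibition (inferred from which compounds were picked for retests). About 67,000 compounds were tested under these conditions; 0.46% (about 300) showed 50% or more at least once.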
B: 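Coenzyme A biosynthesis protein CoaBC, Mycobacterium tuberculosis (UniProt P9WNZ1). Enzyme assay of CoaBC with a phosphate dye (Biomol Green) read at 650 nm. Compounds at 30 µM. Direction is inferred from only a few compounds that gave an IC50; most scored high, so higher reads as stronger inhibition. Most strong results did not repeat in a second test. Of about 67,000 compounds tested this way, about 40 (0.06%) reached 50% or more in at least one test.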
C: 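Cell assay of Leishmania donovani living inside macrophages; the read-out is not stated. Tested at 30 µM. The record gives no direction; compounds that gave an IC50 in retests scored well above the rest, so higher reads as stronger inhibition. Of about 69,000 compounds tested this way, about 1,000 (1.5%) reached 50% or more in at least one test.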
D: 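Tryptophan-tRNA ligase, Mycobacterium tuberculosis (UniProt P9WFT3). Enzyme assay of tryptophanyl-tRNA synthetase; the read-out is not stated. Tested at 10 µM. Direction is not recorded; retested compounds ran higher, which suggests that high means inhibition. Size under these conditions: about 65,000 compounds, about 64 of them at 50% or above in at least one test.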

structure: COc1ccc(CNC(=O)CCc2c(C)noc2C)cc1F
A: -4.206%
B: 2.785%
C: 14.24%
D: -2.022%

structure: CCS(=O)(=O)CC(=O)Nc1c(C)cnn1Cc1cc(F)ccc1F
A: -17.59%
B: 4.551%
C: 9.817%
D: -1.49%

structure: CN(C)CC(=O)N1CCCC1c1ccccn1 (stereo not drawn)
A: -2.777%
B: -5.742%
C: 1.58%
D: 3.516%

structure: COC(=O)c1ccc(S(=O)(=O)N2CCC(Oc3cccnn3)CC2)cc1
A: -2.915%
B: 23.85% and 13.76%
C: 22%
D: 2.189%

structure: O=C(c1cc(C2CC2)[nH]n1)N1CCN(Cc2ccsc2)CC1
A: -4.561%
B: 12.14%
C: 15.83%
D: 1.458%

structure: NC(=O)C1CCCN1Cc1ccccc1NC(=O)Cc1cccc(F)c1 (stereo not drawn)
A: -28.16%
B: 8.855%
C: 26.4%
D: -3.526%

structure: Cc1nc(C2CCN(C(=O)c3ccc(=O)n(C)c3)CC2)c2sccn12
A: -20.18%
B: -13.89%
C: -8.442%
D: 2.425%

structure: O=C1COC2(CCN(S(=O)(=O)C3CC3)CC2)CN1c1ccsc1
A: 13.27%
B: 3.008%
C: 17.58%
D: -0.8299%

structure: COc1c(C)cnc(CN(C)C(=O)c2ccccc2F)c1C
A: -11.94%
B: 6.263%
C: -12.15%
D: 0.7323%

structure: O=C(NCC1CN(c2ncccn2)Cc2nccn2C1)c1cccnc1 (stereo not drawn)
A: -21.69%
D: 0.2907%

structure: CC(C)CN1C[C@H]2CCN(c3ncccn3)CC[C@H]2S1(=O)=O
A: 12.19%
B: 15.45%
D: -4.557%

structure: CCNC(=O)c1ccc(NC(=O)N(C)Cc2cc(C)on2)c(C)c1
A: -8.026%
B: 7.351%
C: -0.9523%
D: 2.495%

structure: CN1CCN(CCCOc2ccccc2CN2C[C@H]3CC[C@H]2C3)CC1
A: -6.229%
B: 2.331%
D: 1.069%

structure: O=C(O)C(F)(F)F.O=C(O)C(F)(F)F.[H][C@@]12C[C@H](C(=O)NC3CC3)CN(Cc3cccnc3)[C@]1([H])CCO2
C: 19.82%

structure: O=C(O)c1csc(S(=O)(=O)N2CCN(Cc3ccc(Cl)cc3)CC2)c1
A: -10.92%
B: 6.38%
C: 18.94%
D: -3.592%

structure: O=C(c1cccs1)N1CCN(Cc2cc(=O)c3ccccc3[nH]2)CC1
A: -21.1%
B: -1.816%
C: 15.78%
D: 3.888%

structure: Cc1cc(CN2C[C@H](N3CCOCC3)[C@@H]3OCCC[C@@H]32)oc1C
A: -21.16%
B: -2.804%
D: -4.163%

structure: CS(=O)(=O)N1CCOC2(CCCN(c3ncc(F)cn3)C2)C1 (stereo not drawn)
A: -0.8107%
B: 3.893%
C: 22.41%
D: -7.319%

structure: CNC(=O)c1cccc(C2CNCCN2C(=O)c2ccn(C)n2)c1 (stereo not drawn)
A: -7.867%
B: -2.179%
C: 18.1% and -0.2322%

structure: CNC(=O)[C@@H](c1ccccc1F)N1CCC[C@H]1C(=O)NC1CC1.Cl
C: 10.15%

structure: Cn1cccc1C(=O)NC[C@H]1C[C@@H]2CN(C(=O)c3ccno3)C[C@H]2O1
A: -33.53%
D: 2.422%

structure: Cc1cccc(CN2CC3(CCN(C(=O)N(C)C)CC3)OCC2=O)n1
A: -11.02%
B: 1.481%
D: -10.8%

structure: CN(Cc1ccccc1)c1ncccc1CNC1CCSCC1
A: -8.29%
B: 5.289%
C: 27.08%
D: -2.484%

structure: COCCN(Cc1ccccn1)C(=O)C1CCCCCN1C (stereo not drawn)
B: 1.463%
C: 21.83%
D: -0.4515%

structure: Cc1cc(N2CCC(c3ncc[nH]3)CC2)c2ccccc2n1
A: 11.45%
B: 16.5%
C: 32.58%
D: -4.863%

structure: [H][C@]12CC[C@]([H])(CN(Cc3cccnc3)C1)N(C(=O)c1ccncc1F)C2
C: 24.76%

structure: Cn1ccnc1C(=O)N[C@@H]1CN(Cc2ccoc2)[C@@H]2CCCO[C@@H]21
A: -2.785%
B: -2.475%

structure: O=C1CC[C@H]2CN(C3CCOCC3)CC[C@H]2N1CCC1=CCCCC1
A: -11.66%
B: 4.37%
D: -3.476%

structure: COCCNc1nc2c(c(NCCc3cccs3)n1)CCNCC2
A: -17.56%
B: -46.04%
C: 48.46%
D: -6.367%

structure: COCCn1cc(C(=O)N2CCCC2c2noc(C)n2)ccc1=O (stereo not drawn)
A: 12.45%
B: -0.2445%
C: -20.91%
D: -4.307%

Some entries from above, unchanged:

- NC(=O)C1CCCN1Cc1ccccc1NC(=O)Cc1cccc(F)c1 (stereo not drawn) : A: -28.16%; B: 8.855%; C: 26.4%; D: -3.526%
- COCCN(Cc1ccccn1)C(=O)C1CCCCCN1C (stereo not drawn) : B: 1.463%; C: 21.83%; D: -0.4515%
- O=C1CC[C@H]2CN(C3CCOCC3)CC[C@H]2N1CCC1=CCCCC1 : A: -11.66%; B: 4.37%; D: -3.476%